Test [1] has as its target FLAG-tagged Sall4 (F-Sall4) (mouse) (UniProt Q8BX22). Nature of the test: affinity purification with mass spectrometry; FLAG-affinity purification of F-Sall4, F-Dax1, F-Tcfcp2l1 or F-Esrrb from nuclear extract of ZHBTc4-derived ESC clones, buffer C-100, Benzonase, FLAG peptide elution; two purifications each without and with doxycycline (16 hr, Oct4 removed); hits present in both -Dox purifications.

Amino acid sequences for entries named in this document (tags omitted).
UniProt Q8BX22: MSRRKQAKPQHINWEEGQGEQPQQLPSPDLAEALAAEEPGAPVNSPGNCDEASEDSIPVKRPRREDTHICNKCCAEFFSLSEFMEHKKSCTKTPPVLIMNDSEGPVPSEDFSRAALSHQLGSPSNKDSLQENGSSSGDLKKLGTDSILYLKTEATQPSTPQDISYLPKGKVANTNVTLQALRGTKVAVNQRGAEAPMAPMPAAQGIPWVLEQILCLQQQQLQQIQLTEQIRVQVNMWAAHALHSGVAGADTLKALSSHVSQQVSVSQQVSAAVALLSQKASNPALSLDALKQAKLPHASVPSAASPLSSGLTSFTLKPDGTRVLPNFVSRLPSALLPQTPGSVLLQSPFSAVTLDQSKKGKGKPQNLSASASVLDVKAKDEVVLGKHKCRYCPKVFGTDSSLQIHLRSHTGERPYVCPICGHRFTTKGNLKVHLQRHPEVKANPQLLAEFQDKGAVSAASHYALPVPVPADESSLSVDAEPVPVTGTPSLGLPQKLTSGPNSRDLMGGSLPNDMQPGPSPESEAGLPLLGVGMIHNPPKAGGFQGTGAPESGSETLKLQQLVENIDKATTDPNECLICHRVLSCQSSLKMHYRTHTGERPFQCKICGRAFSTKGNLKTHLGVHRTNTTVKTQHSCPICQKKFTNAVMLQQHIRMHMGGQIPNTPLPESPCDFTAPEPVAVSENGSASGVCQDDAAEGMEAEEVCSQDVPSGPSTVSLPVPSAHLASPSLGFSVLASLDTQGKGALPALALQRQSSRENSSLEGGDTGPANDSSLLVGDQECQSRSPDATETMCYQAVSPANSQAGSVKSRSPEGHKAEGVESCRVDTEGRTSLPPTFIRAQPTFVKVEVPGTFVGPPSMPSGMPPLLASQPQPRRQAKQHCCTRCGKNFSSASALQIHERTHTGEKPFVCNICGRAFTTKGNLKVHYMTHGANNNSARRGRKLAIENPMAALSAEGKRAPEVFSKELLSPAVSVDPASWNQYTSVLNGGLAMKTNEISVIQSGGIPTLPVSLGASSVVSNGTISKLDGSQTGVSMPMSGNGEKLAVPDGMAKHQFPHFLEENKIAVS
UniProt P20263: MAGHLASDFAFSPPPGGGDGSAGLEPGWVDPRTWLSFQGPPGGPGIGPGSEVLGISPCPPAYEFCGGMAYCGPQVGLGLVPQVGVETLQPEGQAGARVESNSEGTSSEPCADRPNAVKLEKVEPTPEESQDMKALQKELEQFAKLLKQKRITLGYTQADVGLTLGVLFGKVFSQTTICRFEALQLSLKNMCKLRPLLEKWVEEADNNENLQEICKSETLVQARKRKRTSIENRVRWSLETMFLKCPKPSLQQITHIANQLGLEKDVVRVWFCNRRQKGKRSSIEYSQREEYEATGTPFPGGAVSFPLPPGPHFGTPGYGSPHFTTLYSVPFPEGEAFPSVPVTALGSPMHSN

The target in test [2] is Oct4 (Pou5f1) (mouse (endogenous in 46C ESCs)) (UniProt P20263). Briefly: affinity purification with mass spectrometry; immunoprecipitation of endogenous Oct4 (antibody sc-8628 cross-linked to protein G Sepharose) from 1 ml 46C ESC nuclear extract, Benzonase, washes with C-100*, 4°C, boiled in SDS-loading dye; control goat IgG.
Test [3] addresses FLAG-Oct4 (F-Oct4) (mouse) (UniProt P20263). Nature of the test: affinity purification with mass spectrometry; FLAG-affinity purification of F-Oct4 from 1.5 ml ESC nuclear extract on anti-FLAG M2 agarose, buffer C-100 (20 mM HEPES pH 7.6, 100 mM KCl), washes with 0.02% NP-40, Benzonase, 4°C, FLAG peptide elution; three purifications; control ZHBTc4 extract.
Test [4] addresses T1, FLAG-tagged Tcfcp2l1 (F-Tcfcp2l1) (mouse) (UniProt Q3UNW5).
T1 sequence: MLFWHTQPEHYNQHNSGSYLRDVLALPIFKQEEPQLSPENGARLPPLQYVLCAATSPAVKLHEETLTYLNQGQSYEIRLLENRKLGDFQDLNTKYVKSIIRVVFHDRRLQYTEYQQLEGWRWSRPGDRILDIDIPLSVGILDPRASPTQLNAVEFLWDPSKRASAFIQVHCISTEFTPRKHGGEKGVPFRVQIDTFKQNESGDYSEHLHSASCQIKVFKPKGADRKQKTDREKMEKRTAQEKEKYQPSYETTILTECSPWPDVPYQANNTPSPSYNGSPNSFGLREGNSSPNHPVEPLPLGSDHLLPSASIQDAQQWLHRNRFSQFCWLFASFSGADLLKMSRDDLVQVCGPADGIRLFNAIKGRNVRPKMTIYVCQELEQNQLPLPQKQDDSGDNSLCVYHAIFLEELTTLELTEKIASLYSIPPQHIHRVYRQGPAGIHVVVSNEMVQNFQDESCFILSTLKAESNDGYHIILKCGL
Briefly: affinity purification with mass spectrometry; FLAG-affinity purification of F-Sall4, F-Dax1, F-Tcfcp2l1 or F-Esrrb from nuclear extract of ZHBTc4-derived ESC clones, buffer C-100, Benzonase, FLAG peptide elution; two purifications each without and with doxycycline (16 hr, Oct4 removed); hits present in both -Dox purifications.

No constants are given. Whether binding was seen depends on the method and setting. Binding seen in cells or lysates may run through a third protein. These calls come from enrichment with a bait or labelling near it, and not all partners need be listed. For some of these results: Tags and fused reporters may be left off the sequences shown.

B1: Cxxc5 (protein, UniProt Q91WA4 1-317)
chain: MSSLGGGSQDAGGSSSSSNTNSSSGSGQKAGGTDKSTAVAATTAPTSVADDAPPPERRNKSGIISEPLNKSLRRSRPLSHYSSFGSSGGGGSMMGVESADKAAAAAASLLANGHDLAAAMAVDKSNPTSKHKSGAVASLLSKAERATELAAEGQLTLQQFAQSTEMLKRVVQEHLPLMSEAGAGLPDMEAVAGAEALNGQSDFPYLGAFPINPGLFIMTPAGVFLAESALHMAGLAEYPMQGELASAISSGKKKRKRCGMCAPCRRRINCEQCSSCRNRKTGHQICKFRKCEELKKKPSAALEKVMLPSGAAFRWFQ
On to B1, for which the binding entry in test [1] is reported as “binds”.

B2: Sall3 (protein, UniProt Q62255 1-1320)
chain: MSRRKQAKPQHLKSDEELPPQDGASEHGVPGDGAEDADSGSESRSGSEETSVCEKCCAEFFKWADFLQHKKTCTKNPLVLIVHDDEPAPPSEDFPEPSPASSPSDRTESEVAEEVAPTEGSEVKAATKEAEPMDVEVSTDKGPPGPSVPPPPPALPPQPEPAAFSMPSTNVTLETLLSTKVAVAQFSQGARAGGTTGAGGSVGAVAIPMILEQLVALQQQQIHQLQLIEQIRSQVALMSRQPGPPLKPSASAPGTASVQLQGLTPHAALQLSAGPATASAGSGSTLPAAFDGPQHLSQPASGTSTPCSTSAAPPDSGAHPACSTGPAPGAVAAASSTVGNAVQPQNASTPPALGPGPLLSSASNLPNPLLPQTSSSSVIFPNPLVSIAATANALDPLSALMKHRKGKPPNVSVFEPKASAEDPFFKHKCRFCAKVFGSDSALQIHLRSHTGERPFKCNICGNRFSTKGNLKVHFQRHKEKYPHIQMNPYPVPEYLDNVPTCSGIPYGMSLPPEKPVTTWLDSKPVLPTVPTSVGLQLPPTVPGTHNYTDSPSITPVSRSPQRPSPASSECTSLSPGLNNTESGITVRPESPQPLLGGPSLTKAEPVSLPCTSTRTGDAPVVGGQVSGLPTSAATAVTDSACTSLGSPGLPAVSDQFKAQFPFGGLLDSMQTSETSKLQQLVENIDKKMTDPNQCVICHRVLSCQSALKMHYRTHTGERPFKCKICGRAFTTKGNLKTHFGVHRAKPPLRVQHSCPICQKKFTNAVVLQQHIRMHMGGQIPNTPLPEGLQEAMDADLPFDEKNAETLSSFDDDIDENSMEEDSELKDTASDSSKPLLSYSGSCPPSPPSVISSIAALENQMKMIDSVMNCQQLANLKSVENGSGESDRLSNDSSSAVGDLESRSAGSPALSESSSSQALSPAHSNGESFRSKSPGLGHQEDPQEIPLKTERLDSPPPGPGNGGALDLTAGHPGRPLIKEEAPFSLLFLSRERGKCASTVCGVCGKPFACKSALEIHYRSHTKERRFVCTVCRRGCSTMGNLKQHLLTHKLKELPSQVFDPNFTLGPSHSTPSLASSPAPTMIKMEVNGHSKAIALGEGPALPAGVQVPTGPQTVMSPGLAPMLAPPPRRTPKQHNCQSCGKTFSSASALQIHERTHTGEKPFGCTICGRAFTTKGNLKVHMGTHMWNNAPARRGRRLSVENPMALLGGDALKFSEMFQKDLAARAMNVDPSFWNQYAAAITNGLAMKNNEISVIQNGGIPQLPVSLGGGAIPPLGAMASGVDKARTGSSPPIVSLDKASSETGASRPFARFIEDNKEIGIN
For the molecule B2, the binding entry in test [1] was “binds”.

B3: Sall2 (protein, UniProt Q9QX96 1-1004)
chain: MSRRKQRRPQQLISDCEGPSASENGDASEEDHPQVCAKCCAQFSDPTEFLAHQNSCCTDPPVMVIIGGQENPSNSSASSAPRPEGHSRSQVMDTEHSNPPDSGSSGAPDPTWGPERRGEESSGQFLVAATGTAAGGGGGLILASPKLGATPLPPESTPAPPPPPPPPPPPGVGSGHLNIPLILEELRVLQQRQIHQMQMTEQICRQVLLLGSLGQTVGAPASPSELPGTGAASSTKPLLPLFSPIKPAQTGKTLASSSSSSSSSGAEPPKQAFFHLYHPLGSQHPFSVGGVGRSHKPTPAPSPALPGSTDQLIASPHLAFPGTTGLLAAQCLGAARGLEAAASPGLLKPKNGSGELGYGEVISSLEKPGGRHKCRFCAKVFGSDSALQIHLRSHTGERPYKCNVCGNRFTTRGNLKVHFHRHREKYPHVQMNPHPVPEHLDYVITSSGLPYGMSVPPEKAEEEAGTPGGGVERKPLVASTTALSATESLTLLSTGTSTAVAPGLPTFNKFVLMKAVEPKSKADENTPPGSEGSAIAGVADSGSATRMQLSKLVTSLPSWALLTNHLKSTGSFPFPYVLEPLGASPSETSKLQQLVEKIDRQGAVAVASTASGAPTTSAPAPSSSASGPNQCVICLRVLSCPRALRLHYGQHGGERPFKCKVCGRAFSTRGNLRAHFVGHKTSPAARAQNSCPICQKKFTNAVTLQQHVRMHLGGQIPNGGSALSEGGGAAQENSSEQSTASGPGSFPQPQSQQPSPEEEMSEEEEEDEEEEEDVTDEDSLAGRGSESGGEKAISVRGDSEEVSGAEEEVATSVAAPTTVKEMDSNEKAPQHTLPPPPPPPDNLDHPQPMEQGTSDVSGAMEEEAKLEGTSSPMAALTQEGEGTSTPLVEELNLPEAMKKDPGESSGRKACEVCGQSFPTQTALEEHQKTHPKDGPLFTCVFCRQGFLDRATLKKHMLLAHHQVPPFAPHGPQNIATLSLVPGCSSSIPSPGLSPFPRKDDPTMP
In the case of B3, the binding result in test [1] is “binds”.

B4: Hells (protein, UniProt Q60848 1-821)
chain: MAEQTEPAVITPAMLEEEEQLEAAGLEKERKMLEEAQKSWDRESTEIRYRRLQHLLEKSNIYSKFLLTKMEQQQLEEQKKKEKLEKKKRSLKLTEGKSLVDGNGEKPVMKKKRGREDESYNISEVMSKEEILSVAKKHKDNEDESSSTTSLCVEDIQKNKDSNSMIKDRLSQTVRQNSKFFFDPVRKCNGQPVPFQQPKHFTGGVMRWYQVEGMEWLRMLWENGINGILADEMGLGKTVQCIATIALMIQRGVPGPFLVCGPLSTLPNWMAEFKRFTPEIPTLLYHGTREDRRKLVKNIHKRQGTLQIHPVVVTSFEIAMRDQNALQHCYWKYLIVDEGHRIKNMKCRLIRELKRFNADNKLLLTGTPLQNNLSELWSLLNFLLPDVFDDLKSFESWFDITSLSETAEDIIAKEREQNVLHMLHQILTPFLLRRLKSDVALEVPPKREVVVYAPLCNKQEIFYTAIVNRTIANMFGSCEKETVELSPTGRPKRRSRKSINYSELDQFPSELEKLISQIQPEVNRERTVVEGNIPIESEVNLKLRNIMMLLRKCCNHPYMIEYPIDPVTQEFKIDEELVTNSGKFLILDRMLPELKKRGHKVLVFSQMTSMLDILMDYCHLRNFIFSRLDGSMSYSEREKNIYSFNTDPDVFLFLVSTRAGGLGINLTAADTVIIYDSDWNPQSDLQAQDRCHRIGQTKPVVVYRLVTANTIDQKIVERAAAKRKLEKLIIHKNHFKGGQSGLSQSKNFLDAKELMELLKSRDYEREVKGSREKVISDEDLELLLDRSDLIDQMKASRPIKGKTGIFKILENSEDSSAECLF
Turning to B4, the binding result in test [2], in test [3] and in test [4] was “binds” in each case.

B5: Bend3 (protein, UniProt Q6PAL0 1-825)
chain: MNSTEISEDVEEVLKNNPVKAEGSDATLDCSRNSRASEKHLLESVLTALHDSSKRKQLDSDGQPDSVPSVKRRRLIPEALLAGMRTRENSSPCQGNGEPASRGRSGSCAWPAEEEPSTEATVPSYKKPLYGISHKIMEKKNPPSGDLLSPYELFEKANSSSGPSPLRLLSESQKRECGVGVATDGDLNIYFLIQKMFYMLNGLTTNMSQLHSKMDLLSLEVSRVKKQVSPSELVAKFQPPPEYQLTASELKQIAEQSLSCGDLACRLLLQLFPELFSDVDFSRGCSACGFAAKRKLESLHLQLIRNYVEVYYPNVKDTAVWQAECLPQLNDFFSRFWAQREMEDSQPGGQVTNFFEADQVDAGHFLDNKDQEEALSLDRSSTIASDHVVDTQDLTEFLDEASSPGEFAVFLLHRLFPELFDHRKLGEQYSCYGDGGKQELDPQRLQIIRNYTEIYFPDMQEEEAWLQQCAQRINDELEGLGLEGGSEGEAPRDDCYDSSSLPDDISVVKVEDNFEGERPGRRSKKIWLVPIDFDKLEIPQPDFEMPGSDCLLSKEQLRSIYESSLSIGNFASRLLVHLFPELFTHENLRKQYNCSGSLGKKQLDPARIRLIRHYVQLLYPRAKNDRVWTLEFVGKLDERCRRRDTEQRRSYQQQRKVHVPGPECRDLASYAINPERFREEFEGPPLPPERSSKDFCKIPLDELVVPSPDFPVPSPYLLSDKEVREIVQQSLSVGNFAARLLVRLFPELFTTENLRLQYNHSGACNKKQLDPTRLRLIRHYVEAVYPVEKMEEVWHYECIPSIDERCRRPNRKKCDILKKAKKVEK
For B5, in test [1], the binding result is “binds”.

The values are drawn from PMC2860243.
